# According to publication PMC7819943, “Rice protein-binding microarrays: a tool to detect cis-acting elements near promoter regions in rice”:
# By UniProt entry, the sequences of proteins in these tests, tags left out.
# UniProt Q0JBA9, entry or part of it: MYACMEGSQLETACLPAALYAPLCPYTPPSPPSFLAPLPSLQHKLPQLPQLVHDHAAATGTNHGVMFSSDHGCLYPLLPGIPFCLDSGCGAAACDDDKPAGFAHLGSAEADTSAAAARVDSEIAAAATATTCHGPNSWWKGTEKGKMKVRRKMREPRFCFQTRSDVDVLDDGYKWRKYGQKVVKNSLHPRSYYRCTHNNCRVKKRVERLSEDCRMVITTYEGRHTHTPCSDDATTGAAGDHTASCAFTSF
# Some of the results follow.
# Molecular target: OsWRKY34 (Oryza sativa, UniProt Q0JBA9 1-250)
# Assay: protein-binding microarray (RPBM); PBS, 2% BSA, 51.3 ng/ul salmon testes DNA, 50 uM zinc acetate, 200 nM TF, 25 C, 1 h; high values mean tight binding
# Conditions: protein: recombinant; tags: N-terminal polyhistidine and DsRed monomer fusion (pET32a); label: CyDye5-dUTP incorporated in the synthesized complementary strand; 3' TTTTT single-stranded linker to array surface; dsDNA, one strand shown
# Outline: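 Transcription factors, each fused N-terminally to a polyhistidine tag and DsRed, were expressed in E. coli BL21-CodonPlus and purified on Ni–NTA. A custom Agilent array was made double-stranded by primer extension with Cy5-dUTP and blocked with 2% BSA. It was incubated with 200 nM protein in PBS, 2% BSA, salmon testes DNA and 50 µM zinc acetate at 25 °C for 1 h, then washed. The binding signal is per-feature fluorescence intensity (arbitrary units) read on an Axon 4000B scanner.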
row,Sequence,binding signal
1,TGACTCTTCTACACCTTCCAGGCTATCCGGAATCGGGAGGCGGAGTCACCTAGTGCAG,8300 fluorescence intensity (a.u.)
2,ACACCGCCGCCGTGCGCCTCGCCTCGCCGTCGACCGCGCCCGGAGTCACCTAGTGCAG,8590 fluorescence intensity (a.u.)
3,ACACGTGCTATATACTCCCTCGATGTCTCTGTCCCAAAATCGGAGTCACCTAGTGCAG,9360 fluorescence intensity (a.u.)
4,TGGTCCAATATTCACAGTATCCTCTCTTTCCATACTATCCCGGAGTCACCTAGTGCAG,8430 fluorescence intensity (a.u.)
5,TTTCCTGTGCTGGAGCTCGACGATTGCATTGGCGCCCGCTCGGAGTCACCTAGTGCAG,8390 fluorescence intensity (a.u.)
6,GCTTACGGGCCAGGCCTTTCTCTAACCTGATAACTAGTATCGGAGTCACCTAGTGCAG,8750 fluorescence intensity (a.u.)
7,AAATGCCTTTTTATGTTGTGGAATTATGATCTGATAAAGGCGGAGTCACCTAGTGCAG,8910 fluorescence intensity (a.u.)
8,GTGCGGGTATCATTTGTTTTCTTTTTTATTTCTAGCTTGACGGAGTCACCTAGTGCAG,9230 fluorescence intensity (a.u.)
9,TGCCGCTATCCTCTCGGTCGTATCCCGTTTCTCTGTCTTTCGGAGTCACCTAGTGCAG,16100 fluorescence intensity (a.u.)
10,TATTTTTATTATTATATATACTTCCGTCATTCCATATTGACGGAGTCACCTAGTGCAG,9790 fluorescence intensity (a.u.)
11,ACCAACCAACCACTGCTCTCGCCGCGCCGTCCTCTTCATCCGGAGTCACCTAGTGCAG,18200 fluorescence intensity (a.u.)
12,CCCCATCCATTGCAACGGCAACATACACACACCACCACCACGGAGTCACCTAGTGCAG,8350 fluorescence intensity (a.u.)
13,TTACTCTAGCATTCCTCGTCCTGCCCTCTAAAAACAAAAGCGGAGTCACCTAGTGCAG,8710 fluorescence intensity (a.u.)
14,TCGATACCATTTTCAACCATACCATTTTTTACCAAAATTACGGAGTCACCTAGTGCAG,9200 fluorescence intensity (a.u.)
15,CATCTCTTATATTTTAGGATGGCAGGGGTAATAATTAGTTCGGAGTCACCTAGTGCAG,8730 fluorescence intensity (a.u.)
16,AATTAAGATTGGTATTCTTATGCTTACCATGTTATCTTTTCGGAGTCACCTAGTGCAG,9650 fluorescence intensity (a.u.)
17,GTTATATCTCATATTTGTTCTTTGGAACTCCTTCTTTACCCGGAGTCACCTAGTGCAG,8440 fluorescence intensity (a.u.)
18,GAAAGTACAAGACAACTACAAGTTCCCAGCTTTCTCTTCCCGGAGTCACCTAGTGCAG,8460 fluorescence intensity (a.u.)
19,CGCTCCGGCCGCCGTCGCCCCACTTCGCCCGCTGCCCTAGCGGAGTCACCTAGTGCAG,9940 fluorescence intensity (a.u.)
20,GGTTCTAGATTGATCTATTTGTCTTTTGATGTTGCCCTCACGGAGTCACCTAGTGCAG,12600 fluorescence intensity (a.u.)
21,ACTAGTGACCCTAATTTTCGGTTCGATATTTGAAATTTCCCGGAGTCACCTAGTGCAG,9030 fluorescence intensity (a.u.)

row,Sequence,binding signal
1,TTTTTTTATTAATTGATTTGTGGAATATTCGTTTGTTCTTCGGAGTCACCTAGTGCAG,8080 fluorescence intensity (a.u.)
2,TTTAATGCATGACTCTTCATTCTTCCACACATGATTGGCTCGGAGTCACCTAGTGCAG,11900 fluorescence intensity (a.u.)
3,ATATACTATTCTCATCTGTCATACACACATCACATCTTGACGGAGTCACCTAGTGCAG,10000 fluorescence intensity (a.u.)
4,CCCATTGCCTTCCTTCTTGCCCAATTCACTCCACCATACTCGGAGTCACCTAGTGCAG,10500 fluorescence intensity (a.u.)
5,CCGCTACGCTCGCCGCGCCGCCGCTACGCTCGCCGCGCCGCGGAGTCACCTAGTGCAG,8320 fluorescence intensity (a.u.)
6,ATCACGTCGCCTCGTTTCTTGCCTCGCCGCTCGTTGCTCGCGGAGTCACCTAGTGCAG,12200 fluorescence intensity (a.u.)
7,CTATTTACATTTCAACTTTGATCGTCCGCCGTTTTTAAGACGGAGTCACCTAGTGCAG,8390 fluorescence intensity (a.u.)
8,ACTTGGTTTAACGTATCATCCCGGTCCAAAGCCTCGTTTGCGGAGTCACCTAGTGCAG,8170 fluorescence intensity (a.u.)
9,CAATAATGATGGGGTGGTGGAGATGGTGGTGGGTTTGGTCCGGAGTCACCTAGTGCAG,11200 fluorescence intensity (a.u.)
10,AGATACATATATATTCCCATGGTTTTTTGCCCACCCAGCGCGGAGTCACCTAGTGCAG,8480 fluorescence intensity (a.u.)
11,GTTTTGTGAAATTTACTCTTTTTTTCTCTCTTGGTCCACGCGGAGTCACCTAGTGCAG,8190 fluorescence intensity (a.u.)
12,CGTTCTTCGATCCGTACTCTGCTCCGATCGCCATTTCCTGCGGAGTCACCTAGTGCAG,10100 fluorescence intensity (a.u.)
13,CAATTCCAGCCCGTCTCTTATCTCTCTCGTGTCTTCTTCACGGAGTCACCTAGTGCAG,8370 fluorescence intensity (a.u.)
14,GTTGTAGTTTCTTGAATCACCCTGCCCAGTTAGTGCTTATCGGAGTCACCTAGTGCAG,8250 fluorescence intensity (a.u.)
15,ACTCTATATCGTTCCACATCCGTCTATATGATATCTTTATCGGAGTCACCTAGTGCAG,9750 fluorescence intensity (a.u.)
16,TAGAACTCTGGTTGTCTTTCCTTATCCGGAACTCCTCATACGGAGTCACCTAGTGCAG,10200 fluorescence intensity (a.u.)
17,TATCACGATATTCTACCTCGCTCTCATGGGCTAGATCACCCGGAGTCACCTAGTGCAG,9500 fluorescence intensity (a.u.)
18,TAGCCTCAGACGTCTCATCCTTATCGCCTCGCCTCTCGATCGGAGTCACCTAGTGCAG,9530 fluorescence intensity (a.u.)
19,TGGTCCTGATTTATTTGGTACAAACATACTTCTACGTTACCGGAGTCACCTAGTGCAG,8320 fluorescence intensity (a.u.)
20,TCACAACTCAATTAACCATACACTAATTACTTTCGCATCCCGGAGTCACCTAGTGCAG,8110 fluorescence intensity (a.u.)
21,GTCGCGCCTGACGCCGCCGTTGCGCCTGCCACCGCCTGTCCGGAGTCACCTAGTGCAG,8220 fluorescence intensity (a.u.)

# Part of the list above, as tab-separated lines.
row	Sequence	binding signal
7	CTATTTACATTTCAACTTTGATCGTCCGCCGTTTTTAAGACGGAGTCACCTAGTGCAG	8390 fluorescence intensity (a.u.)
8	ACTTGGTTTAACGTATCATCCCGGTCCAAAGCCTCGTTTGCGGAGTCACCTAGTGCAG	8170 fluorescence intensity (a.u.)
9	CAATAATGATGGGGTGGTGGAGATGGTGGTGGGTTTGGTCCGGAGTCACCTAGTGCAG	11200 fluorescence intensity (a.u.)
